{"sequences": {"note": "Amino acid sequences for entries named in this document (tags omitted). A change or cut given only in a name is not applied to a line headed by its entry.", "UniProt P46926": "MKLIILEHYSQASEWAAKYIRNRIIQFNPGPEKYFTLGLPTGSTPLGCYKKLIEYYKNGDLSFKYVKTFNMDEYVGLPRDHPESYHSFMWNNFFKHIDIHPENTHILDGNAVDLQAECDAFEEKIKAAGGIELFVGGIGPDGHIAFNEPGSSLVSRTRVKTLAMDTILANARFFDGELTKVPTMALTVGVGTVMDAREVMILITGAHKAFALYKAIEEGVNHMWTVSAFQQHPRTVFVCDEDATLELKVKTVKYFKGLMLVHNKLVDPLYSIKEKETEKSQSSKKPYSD", "UniProt P53701": "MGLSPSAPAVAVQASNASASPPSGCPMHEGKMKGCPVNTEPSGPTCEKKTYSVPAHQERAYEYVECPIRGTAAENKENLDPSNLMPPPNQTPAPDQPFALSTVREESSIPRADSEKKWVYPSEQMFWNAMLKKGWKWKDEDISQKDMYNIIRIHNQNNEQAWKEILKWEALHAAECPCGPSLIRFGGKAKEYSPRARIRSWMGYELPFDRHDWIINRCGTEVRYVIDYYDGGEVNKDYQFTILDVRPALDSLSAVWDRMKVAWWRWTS", "UniProt P52948": "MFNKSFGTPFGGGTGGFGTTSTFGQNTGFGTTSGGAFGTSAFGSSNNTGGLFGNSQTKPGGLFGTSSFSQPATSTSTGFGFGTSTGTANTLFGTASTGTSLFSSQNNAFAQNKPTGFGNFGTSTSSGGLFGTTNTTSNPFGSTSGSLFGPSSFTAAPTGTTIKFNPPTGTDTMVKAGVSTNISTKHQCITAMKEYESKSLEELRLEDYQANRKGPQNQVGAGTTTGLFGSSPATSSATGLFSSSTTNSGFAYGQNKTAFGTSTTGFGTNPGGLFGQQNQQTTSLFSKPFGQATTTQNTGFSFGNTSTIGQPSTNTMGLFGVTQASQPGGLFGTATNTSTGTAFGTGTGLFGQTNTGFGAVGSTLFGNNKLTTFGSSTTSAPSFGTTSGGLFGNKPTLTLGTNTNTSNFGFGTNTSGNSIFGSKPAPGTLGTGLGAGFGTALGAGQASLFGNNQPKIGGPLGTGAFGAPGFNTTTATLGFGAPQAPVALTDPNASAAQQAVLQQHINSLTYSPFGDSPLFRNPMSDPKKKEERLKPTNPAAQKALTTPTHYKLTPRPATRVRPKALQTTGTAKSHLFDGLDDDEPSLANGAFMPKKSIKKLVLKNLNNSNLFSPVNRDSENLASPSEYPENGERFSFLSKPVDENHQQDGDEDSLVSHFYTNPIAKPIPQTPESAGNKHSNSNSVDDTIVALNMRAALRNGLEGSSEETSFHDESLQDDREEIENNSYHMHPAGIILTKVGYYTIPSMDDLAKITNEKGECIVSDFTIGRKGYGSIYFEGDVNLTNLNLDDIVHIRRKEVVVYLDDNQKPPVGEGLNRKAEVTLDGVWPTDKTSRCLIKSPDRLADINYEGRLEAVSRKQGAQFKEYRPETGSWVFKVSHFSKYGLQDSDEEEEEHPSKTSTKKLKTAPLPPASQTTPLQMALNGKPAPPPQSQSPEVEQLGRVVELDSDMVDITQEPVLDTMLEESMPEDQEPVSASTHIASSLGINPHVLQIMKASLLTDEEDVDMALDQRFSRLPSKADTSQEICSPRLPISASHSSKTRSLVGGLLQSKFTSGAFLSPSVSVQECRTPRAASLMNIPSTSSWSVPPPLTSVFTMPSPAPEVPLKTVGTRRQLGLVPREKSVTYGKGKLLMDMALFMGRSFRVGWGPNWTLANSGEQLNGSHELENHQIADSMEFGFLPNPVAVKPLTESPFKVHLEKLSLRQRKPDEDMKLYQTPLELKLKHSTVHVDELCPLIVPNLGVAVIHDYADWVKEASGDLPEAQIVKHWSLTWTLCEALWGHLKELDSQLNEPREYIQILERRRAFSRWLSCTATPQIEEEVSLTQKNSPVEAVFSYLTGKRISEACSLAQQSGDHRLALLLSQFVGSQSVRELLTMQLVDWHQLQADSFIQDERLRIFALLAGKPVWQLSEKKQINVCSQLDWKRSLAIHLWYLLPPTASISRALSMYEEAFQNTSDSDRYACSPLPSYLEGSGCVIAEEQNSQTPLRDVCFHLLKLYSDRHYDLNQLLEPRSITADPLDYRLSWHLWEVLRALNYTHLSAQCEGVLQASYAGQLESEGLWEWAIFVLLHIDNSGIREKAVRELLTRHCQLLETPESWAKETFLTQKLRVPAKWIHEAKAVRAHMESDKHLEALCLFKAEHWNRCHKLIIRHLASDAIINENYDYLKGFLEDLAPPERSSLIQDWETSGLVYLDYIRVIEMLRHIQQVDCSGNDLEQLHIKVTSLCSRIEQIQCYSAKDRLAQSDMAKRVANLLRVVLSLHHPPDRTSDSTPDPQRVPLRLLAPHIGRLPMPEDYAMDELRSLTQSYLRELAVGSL", "UniProt P49585": "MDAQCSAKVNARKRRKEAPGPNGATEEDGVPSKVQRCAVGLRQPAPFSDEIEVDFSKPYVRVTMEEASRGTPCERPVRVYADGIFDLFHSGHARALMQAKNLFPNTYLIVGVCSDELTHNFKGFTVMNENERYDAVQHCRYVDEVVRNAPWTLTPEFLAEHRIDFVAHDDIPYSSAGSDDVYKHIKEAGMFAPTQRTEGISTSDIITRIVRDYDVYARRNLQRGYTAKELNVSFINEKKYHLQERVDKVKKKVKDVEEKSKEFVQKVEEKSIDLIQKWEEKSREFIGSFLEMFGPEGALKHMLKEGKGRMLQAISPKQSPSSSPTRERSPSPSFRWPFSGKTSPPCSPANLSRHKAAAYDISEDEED", "UniProt P49848, whole entry": "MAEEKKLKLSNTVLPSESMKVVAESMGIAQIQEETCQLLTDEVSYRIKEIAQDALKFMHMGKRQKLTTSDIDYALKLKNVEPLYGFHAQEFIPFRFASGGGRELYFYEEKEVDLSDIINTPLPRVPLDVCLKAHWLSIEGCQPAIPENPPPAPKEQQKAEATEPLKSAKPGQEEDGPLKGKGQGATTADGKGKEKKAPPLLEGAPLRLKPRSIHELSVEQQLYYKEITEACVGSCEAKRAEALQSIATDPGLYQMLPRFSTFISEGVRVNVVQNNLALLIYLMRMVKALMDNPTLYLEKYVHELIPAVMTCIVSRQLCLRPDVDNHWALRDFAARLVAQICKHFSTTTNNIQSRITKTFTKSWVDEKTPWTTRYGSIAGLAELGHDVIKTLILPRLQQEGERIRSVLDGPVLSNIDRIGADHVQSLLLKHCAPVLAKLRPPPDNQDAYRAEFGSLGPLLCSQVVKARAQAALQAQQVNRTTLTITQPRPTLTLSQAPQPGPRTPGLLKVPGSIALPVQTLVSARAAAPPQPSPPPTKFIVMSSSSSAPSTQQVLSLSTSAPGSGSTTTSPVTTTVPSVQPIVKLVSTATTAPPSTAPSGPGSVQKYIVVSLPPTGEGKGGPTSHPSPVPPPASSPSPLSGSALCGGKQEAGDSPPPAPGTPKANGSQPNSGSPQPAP", "UniProt P51797": "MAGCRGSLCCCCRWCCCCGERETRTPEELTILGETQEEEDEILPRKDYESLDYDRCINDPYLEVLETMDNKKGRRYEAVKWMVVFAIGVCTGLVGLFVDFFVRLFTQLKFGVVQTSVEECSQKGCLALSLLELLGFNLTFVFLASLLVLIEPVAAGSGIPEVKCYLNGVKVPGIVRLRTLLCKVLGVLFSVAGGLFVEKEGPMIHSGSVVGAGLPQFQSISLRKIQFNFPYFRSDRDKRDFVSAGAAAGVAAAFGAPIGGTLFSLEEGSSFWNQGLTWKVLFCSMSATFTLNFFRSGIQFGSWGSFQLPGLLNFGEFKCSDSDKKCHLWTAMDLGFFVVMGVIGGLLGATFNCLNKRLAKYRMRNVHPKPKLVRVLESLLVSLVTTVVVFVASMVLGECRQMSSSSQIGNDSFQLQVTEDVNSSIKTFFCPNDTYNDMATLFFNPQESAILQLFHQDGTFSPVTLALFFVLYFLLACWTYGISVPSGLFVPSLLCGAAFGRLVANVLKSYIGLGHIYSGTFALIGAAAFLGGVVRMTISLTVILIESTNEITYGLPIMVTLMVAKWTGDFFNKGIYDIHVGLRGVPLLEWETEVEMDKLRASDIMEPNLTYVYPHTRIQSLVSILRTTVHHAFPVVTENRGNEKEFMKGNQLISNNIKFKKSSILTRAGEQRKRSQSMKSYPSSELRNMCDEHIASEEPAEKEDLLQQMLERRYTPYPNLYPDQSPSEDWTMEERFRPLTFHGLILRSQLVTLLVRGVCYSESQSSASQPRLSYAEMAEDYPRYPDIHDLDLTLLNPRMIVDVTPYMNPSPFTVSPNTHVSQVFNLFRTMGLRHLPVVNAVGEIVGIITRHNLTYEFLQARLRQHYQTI", "UniProt P54259": "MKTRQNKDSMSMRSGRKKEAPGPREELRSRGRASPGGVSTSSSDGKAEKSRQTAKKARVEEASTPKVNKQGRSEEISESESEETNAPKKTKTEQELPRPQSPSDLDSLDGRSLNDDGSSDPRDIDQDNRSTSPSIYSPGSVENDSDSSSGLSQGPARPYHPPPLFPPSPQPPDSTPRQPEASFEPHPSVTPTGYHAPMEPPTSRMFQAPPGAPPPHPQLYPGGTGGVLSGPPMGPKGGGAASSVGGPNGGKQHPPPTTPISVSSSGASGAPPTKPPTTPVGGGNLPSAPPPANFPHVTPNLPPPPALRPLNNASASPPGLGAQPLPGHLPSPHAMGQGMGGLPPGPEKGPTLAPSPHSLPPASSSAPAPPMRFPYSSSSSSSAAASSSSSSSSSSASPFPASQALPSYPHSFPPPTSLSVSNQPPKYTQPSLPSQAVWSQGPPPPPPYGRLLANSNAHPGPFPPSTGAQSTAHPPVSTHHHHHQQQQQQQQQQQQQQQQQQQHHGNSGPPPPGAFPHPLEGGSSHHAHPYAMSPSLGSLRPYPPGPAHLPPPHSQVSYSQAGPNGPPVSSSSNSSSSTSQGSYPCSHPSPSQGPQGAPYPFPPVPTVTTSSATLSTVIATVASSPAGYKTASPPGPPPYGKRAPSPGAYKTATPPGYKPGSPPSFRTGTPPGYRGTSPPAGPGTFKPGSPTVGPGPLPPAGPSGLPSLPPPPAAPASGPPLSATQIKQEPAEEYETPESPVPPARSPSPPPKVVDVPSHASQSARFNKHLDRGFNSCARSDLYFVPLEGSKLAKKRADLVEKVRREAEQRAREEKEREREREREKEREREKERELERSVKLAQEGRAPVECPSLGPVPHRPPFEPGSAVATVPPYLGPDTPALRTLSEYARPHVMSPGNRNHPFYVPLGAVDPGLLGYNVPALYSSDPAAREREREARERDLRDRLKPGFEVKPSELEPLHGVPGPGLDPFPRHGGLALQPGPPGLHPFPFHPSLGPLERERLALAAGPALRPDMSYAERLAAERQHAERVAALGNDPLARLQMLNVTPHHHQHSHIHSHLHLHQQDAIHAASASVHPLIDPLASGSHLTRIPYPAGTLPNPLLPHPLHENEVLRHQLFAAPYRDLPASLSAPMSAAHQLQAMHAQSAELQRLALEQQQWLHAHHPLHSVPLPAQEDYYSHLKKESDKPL", "UniProt P51617, whole entry, looked up": "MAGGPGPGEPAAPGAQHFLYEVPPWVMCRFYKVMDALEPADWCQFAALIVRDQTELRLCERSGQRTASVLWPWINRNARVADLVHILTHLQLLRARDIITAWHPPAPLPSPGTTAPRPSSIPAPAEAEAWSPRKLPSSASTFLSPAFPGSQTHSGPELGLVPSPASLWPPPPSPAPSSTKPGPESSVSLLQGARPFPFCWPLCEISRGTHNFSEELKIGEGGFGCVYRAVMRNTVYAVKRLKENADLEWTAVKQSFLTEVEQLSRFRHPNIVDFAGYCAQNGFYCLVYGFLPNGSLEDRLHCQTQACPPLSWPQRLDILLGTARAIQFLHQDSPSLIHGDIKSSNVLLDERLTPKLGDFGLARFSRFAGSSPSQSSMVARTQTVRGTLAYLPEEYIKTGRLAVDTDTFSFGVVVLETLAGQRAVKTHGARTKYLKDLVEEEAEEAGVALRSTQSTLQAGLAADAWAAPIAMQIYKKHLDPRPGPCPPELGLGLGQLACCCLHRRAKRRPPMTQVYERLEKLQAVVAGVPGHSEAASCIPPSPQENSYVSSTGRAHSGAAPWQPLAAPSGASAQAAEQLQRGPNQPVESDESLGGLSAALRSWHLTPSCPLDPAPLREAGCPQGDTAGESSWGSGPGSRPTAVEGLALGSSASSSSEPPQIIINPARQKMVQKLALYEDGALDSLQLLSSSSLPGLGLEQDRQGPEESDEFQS", "UniProt P53801": "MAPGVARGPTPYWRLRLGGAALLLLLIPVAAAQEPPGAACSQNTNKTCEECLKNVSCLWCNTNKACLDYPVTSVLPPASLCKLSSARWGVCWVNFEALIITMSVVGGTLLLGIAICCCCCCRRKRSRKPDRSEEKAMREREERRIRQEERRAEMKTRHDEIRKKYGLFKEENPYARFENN", "UniProt P52943": "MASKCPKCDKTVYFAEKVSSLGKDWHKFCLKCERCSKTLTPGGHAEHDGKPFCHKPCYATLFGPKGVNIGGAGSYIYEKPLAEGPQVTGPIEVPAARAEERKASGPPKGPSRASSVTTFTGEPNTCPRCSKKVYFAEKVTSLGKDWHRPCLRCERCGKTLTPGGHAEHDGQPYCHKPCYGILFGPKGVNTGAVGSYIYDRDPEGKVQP"}, "source": "the supplement of paper PMC12819154", "about": "“High-throughput peptide-centric local stability assay extends protein–ligand identification to membrane proteins, tissues and bacteria” (Nature Structural & Molecular Biology, 2025)", "note": "This is one part of the list. Most values lie at the level of the controls, where differences are scatter.", "data": [{"compound": "CN[C@@H]1C[C@H]2O[C@@](C)([C@@H]1OC)n1c3ccccc3c3c4c(c5c6ccccc6n2c5c31)C(=O)NC4 [staurosporine]", "test": "log2 fold change of tryptic peptide abundance, ligand vs vehicle (limited proteolysis) (log2 ratio); higher = more trypsin-susceptible (destabilized)", "details": "ligand concentration: 20 uM; sample: K562 cleared lysate; digestion: 4 min, 22 C (HT-PELSA RT4min, Orbitrap Astral)", "values": [{"target": "HNRNPM (peptide sequence: MGAGMGFGLER, peptide start residue: 486) (UniProt P52272)", "log2 fold change": -0.138}, {"target": "COPA (peptide sequence: YAVTTGDHGIIR, peptide start residue: 551) (UniProt P53621)", "log2 fold change": 0.235}, {"target": "NEK4 (peptide sequence: VAEEAEEIHFK, peptide start residue: 752) (UniProt P51957)", "log2 fold change": 0.341}, {"target": "GNPDA1 (peptide sequence: GLMLVHNK, peptide start residue: 257) (UniProt P46926)", "log2 fold change": 0.625}, {"target": "SUCLG1 (peptide sequence: QHLYVDKNTK, peptide start residue: 48) (UniProt P53597)", "log2 fold change": 0.596}, {"target": "PPT1 (peptide sequence: TLNAGAYSK, peptide start residue: 166) (UniProt P50897)", "log2 fold change": 0.218}, {"target": "HCCS (peptide sequence: AYEYVECPIR, peptide start residue: 60) (UniProt P53701)", "log2 fold change": 0.337}, {"target": "HDGF (peptide sequence: MKGYPHWPARIDEMPEAAVK, peptide start residue: 20) (UniProt P51858)", "log2 fold change": 0.367}, {"target": "TTC3 (peptide sequence: TYEPSSATPVTR, peptide start residue: 1911) (UniProt P53804)", "log2 fold change": -0.293}, {"target": "PIP4K2A (peptide sequence: CHENSPR, peptide start residue: 343) (UniProt P48426)", "log2 fold change": 0.21}, {"target": "TERF1 (peptide sequence: QAWLWEEDKNLR, peptide start residue: 381) (UniProt P54274)", "log2 fold change": -0.123}, {"target": "EIF5 (peptide sequence: VLTLSDDLER, peptide start residue: 225) (UniProt P55010)", "log2 fold change": -0.159}, {"target": "NUP98 (peptide sequence: KAEVTLDGVWPTDKTSR, peptide start residue: 818) (UniProt P52948)", "log2 fold change": 0.168}, {"target": "RPL21 (peptide sequence: RQPAPPREAHFVR, peptide start residue: 130) (UniProt P46778)", "log2 fold change": 0.476}, {"target": "YLPM1 (peptide sequence: DYQDDTLELYNREDR, peptide start residue: 1233) (UniProt P49750)", "log2 fold change": -0.411}, {"target": "PCYT1A (peptide sequence: TEGISTSDIITR, peptide start residue: 197) (UniProt P49585)", "log2 fold change": -0.0825}, {"target": "KPNA2 (peptide sequence: NKNPAPPIDAVEQILPTLVR, peptide start residue: 239) (UniProt P52292)", "log2 fold change": -0.304}, {"target": "CAPZA1 (peptide sequence: FITHAPPGEFNEVFNDVR, peptide start residue: 20) (UniProt P52907)", "log2 fold change": -0.641}, {"target": "METAP1 (peptide sequence: LFHTAPNVPHYAK, peptide start residue: 299) (UniProt P53582)", "log2 fold change": -0.201}, {"target": "PREP (peptide sequence: AFVEAQNK, peptide start residue: 41) (UniProt P48147)", "log2 fold change": -0.158}, {"target": "TAF6 (peptide sequence: LSNTVLPSESMK, peptide start residue: 9) (UniProt P49848)", "log2 fold change": 0.239}, {"target": "UniProt P49959 (peptide sequence: IMSQSQVSK, peptide start residue: 674)", "log2 fold change": -0.101}, {"target": "CLCN6 (peptide sequence: GNQLISNNIK, peptide start residue: 649) (UniProt P51797)", "log2 fold change": -0.00399}, {"target": "THOP1 (peptide sequence: YGHAACFGLQPGCLR, peptide start residue: 422) (UniProt P52888)", "log2 fold change": -0.579}, {"target": "ATN1 (peptide sequence: DIDQDNR, peptide start residue: 703) (UniProt P54259)", "log2 fold change": -0.243}, {"target": "ATRX (peptide sequence: EKTEDKDK, peptide start residue: 2060) (UniProt P46100)", "log2 fold change": 0.747}, {"target": "PMS1 (peptide sequence: GEALGSICCIAEVLITTR, peptide start residue: 94) (UniProt P54277)", "log2 fold change": 0.73}, {"target": "IRAK1 (peptide sequence: ENADLEWTAVK, peptide start residue: 243) (UniProt P51617)", "log2 fold change": -0.433}, {"target": "PTTG1IP (peptide sequence: YGLFKEENPYAR, peptide start residue: 165) (UniProt P53801)", "log2 fold change": -0.0775}, {"target": "RPL14 (peptide sequence: MTDFDRFKVMK, peptide start residue: 104) (UniProt P50914)", "log2 fold change": 0.446}, {"target": "SUOX (peptide sequence: VVVPGVVGAR, peptide start residue: 367) (UniProt P51687)", "log2 fold change": -0.14}, {"target": "CRIP2 (peptide sequence: GVNTGAVGSYIYDRDPEGK, peptide start residue: 187) (UniProt P52943)", "log2 fold change": -0.261}, {"target": "SMARCA2 (peptide sequence: QLSEVFIQLPSRK, peptide start residue: 1480) (UniProt P51531)", "log2 fold change": 0.338}, {"target": "ZNF143 (peptide sequence: QISTLAMHKR, peptide start residue: 428) (UniProt P52747)", "log2 fold change": 0.63}, {"target": "SRP9 (peptide sequence: FHSQLMR, peptide start residue: 65) (UniProt P49458)", "log2 fold change": 0.148}]}]}
